Results reported in patent publication EP4545088A1, “COMPOSITION COMPRISING CPNE7 PROTEIN OR CPNE7 PROTEIN-DERIVED PEPTIDE FOR REMOVING REACTIVE OXYGEN SPECIES IN CELLS” (Hysensbio Co., Ltd, priority 2022, dated 2025).
At least one peptide structure holds a part that was inferred or is arguable (an end, a ring closure or a residue). No end group written: not given here.

Columns and labels:
[1] = test system: H9C2 cells; assay: Optical microscope observation of cells after H2O2 and Selcopintide; type: cell-based; conditions: H9C2 cardiomyocytes, 1 mM H2O2, Selcopintide 1, 10, 100 and 500 ug/mL, 24 hours; compared to H2O2-only-treated group
[2] = test system: hDPCs; assay: Reactive oxygen species level with DCFDA, confocal microscope; type: cell-based, Human; conditions: 1 mM H2O2, 10 ug/mL Selcopintide, imaged for approximately one hour
[3] = test system: H9C2 cells; assay: Cell aging by beta-galactosidase (B-gal) staining; type: cell-based; conditions: H9C2, 1 mM H2O2, Selcopintide 1, 10, 100 and 500 ug/mL, 24 hours; compared to H2O2-only-treated group
[4] = test system: endogenous antioxidant enzymes in hDPC cells; assay: mRNA levels of endogenous antioxidant enzymes by RT-PCR; type: cell-based, Human; conditions: hDPCs, 1 mM H2O2, CPNE7 recombinant protein 100 ng/mL or Selcopintide 10 ug/mL
[5] = test system: hDPCs; assay: DNA damage by γ-H2A.X immunofluorescence staining; type: cell-based, Human; conditions: 1 mM H2O2, 10 ug/mL Selcopintide, 24 hours, versus 1 mM H2O2 group
[6] = test system: H9C2 cells; assay: Amount of living cells by WST-8; type: cell-based; conditions: 24 hours, compared to H2O2-only-treated group
[7] = test system: CCD986SK cells; assay: Amount of living cells by WST-8; type: cell-based; conditions: 24 hours, compared to H2O2-only-treated group
[8] = test system: CCD986SK cells; assay: Optical microscope observation of cells after H2O2 and Selcopintide; type: cell-based; conditions: 24 hours
[9] = test system: hDPCs; assay: Optical microscope observation of cells after H2O2 and test substance; type: cell-based, Human; conditions: 24 hours
[10] = test system: CCD986SK cells; assay: Cell aging by beta-galactosidase (B-gal) staining; type: cell-based; conditions: 1 mM H2O2, Selcopintide 1, 10, 100 and 500 ug/mL, 24 hours, compared to H2O2-only-treated group
[11] = test system: hDPC cells; assay: Amount of living cells by WST-8; type: cell-based, Human; conditions: hDPCs, 24 hours, compared to H2O2-only-treated group
[12] = after 30 minutes, compared to H2O2-only-treated group
[13] = 1 mM H2O2, Selcopintide 1 ug/mL
[14] = 1 mM H2O2, Selcopintide 10 ug/mL

With KYKQKRRSYK [Selcopintide, KYKQKRRSYK] the cell viability [1] was “higher”, the “amount of reactive oxygen species” value [2] was “reached its maximum at approximately 30 minutes, then decreased and became significant at approximately one hour” and the “number of B-gal positive H9C2 cells” value [3] was “significantly reduced”. For the same sequence, the “mRNA level of Sod1” value [4, 12] was “significantly increased”, the “mRNA level of Sod2” value [4, 12] was “significantly increased” and the “mRNA level of catalase” value [4, 12] was “significantly increased”. The “mRNA level of Gpx7” value ([4]; after one hour) was “significantly increased”, the “mRNA level of Hmox1” value ([4]; after one hour) was “significantly increased” and the “mRNA level of Sod1” value ([4]; after one hour) was “significantly increased”. For the same sequence, the “mRNA level of Txrnd1” value ([4]; after one hour) was “significantly increased”, the “accumulation of DNA damage” value [5] was “significantly reduced” and the cell viability ([6]; H9C2, 1 mM H2O2, Selcopintide 1 ug/mL) was “significantly higher”. The cell viability ([6]; H9C2, 1 mM H2O2, Selcopintide 10 ug/mL) was “significantly higher”, the cell viability ([6]; H9C2, 1 mM H2O2, Selcopintide 100 ug/mL) was “significantly higher” and the cell viability ([6]; H9C2, 1 mM H2O2, Selcopintide 500 ug/mL) was “significantly higher”. For the same sequence, the cell viability [7, 13] was “significantly higher”, the cell viability [7, 14] was “significantly higher” and the cell viability ([7]; 1 mM H2O2, Selcopintide 100 ug/mL) was “significantly higher”. The cell viability ([7]; 1 mM H2O2, Selcopintide 500 ug/mL) was “significantly higher”, the cell viability ([8]; CCD986SK dermal fibroblasts, 1 mM H2O2, Selcopintide 1, 10, 100 and 500 ug/mL, compared to H2O2-only-treated group) was “higher” and the cell viability ([8]; CCD986SK, 1 mM H2O2, Selcopintide 1 ug/mL) was “significance was highest”. The cell viability ([8]; CCD986SK, 1 mM H2O2, Selcopintide 10 ug/mL) was “significance was highest”, the cell viability [9, 13] was “high” and the cell viability [9, 14] was “high”. For the same sequence, the cell viability ([9]; 1 mM H2O2, Selcopintide 1, 10, 100 and 500 ug/mL, compared to H2O2-only-treated group) was “higher”, the “number of B-gal positive CCD986SK cells” value [10] was “significantly reduced” and the cell viability [11, 13] was “significantly higher”. For the same sequence, the cell viability [11, 14] was “significantly higher”.
